Results published in US20190374607A1.
No constants are given. Whether binding was seen depends on the method and setting. Binding seen in cells or lysates may run through a third protein. Some binding calls cover weakened binding; strength is not graded here.

Biological target: atypical chemokine receptor 3 (ACKR3), P25106
Test: proximity ligation assay on hPPAEC
Conditions: remark: other sources report otherwise

binding: binds
B1: chemokine (C-X-C) motif receptor (CXCR) 4, P61073 1-352 (receptor, UniProt P61073 1-352, looked up)
chain: MEGISIYTSDNYTEEMGSGDYDSMKEPCFREENANFNKIFLPTIYSIIFLTGIVGNGLVILVMGYQKKLRSMTDKYRLHLSVADLLFVITLPFWAVDAVANWYFGNFLCKAVHVIYTVNLYSSVLILAFISLDRYLAIVHATNSQRPRKLLAEKVVYVGVWIPALLLTIPDFIFANVSEADDRYICDRFYPNDLWVVVFQFQHIMVGLILPGIVILSCYCIIISKLSHSKGHQKRKALKTTVILILAFFACWLPYYIGISIDSFILLEIIKQGCEFENTVHKWISITEALAFFHCCLNPILYAFLGAKFKTSAQHALTSVSRGSSLKILSKGKRGGHSSVSTESESSSFHSS
